Test results published in patent US20230318003A1, “REDOX FLOW BATTERY AND AQUEOUS-BASED SOLUTION” (RIVUS AB, priority 2020, published 2023).

Assay: Redox flow battery cycling, capacity utilization
Conditions: 50 mM
Description: The four different redox flow batteries were assembled according to table 4 below. For all four redox flow batteries, the negative electrolyte was based on NDI (denoted NDI-1) or modified NDI (denoted NDI-2) in a potassium chloride (KCl)-potassium phosphate (KPh) solution or NDI-1 and NDI-2 in an ammonium chloride (AmCl)-ammonium phosphate (AmPh) solution, while the positive electrolyte was based on BTMAP-Fc in a KCl-KPh solution and BTMAP-Fc in an AmCl-AmPh solution. NDI-1 and NDI-2 had the general structure according to formula III with the below listed specification: […]
NDI-1 had the specific formula: 2,7-bis(3-(dimethylamino)propyl)benzo[Imn][3,8]phenanthroline-1,3,6,8(2H,7H)-tetraone and NDI-2 had the specific formula: 4,9-bis(dimethylamino)-2,7-bis(3-(dimethylamino)propyl)benzo[Imn][3,8]phenanthroline-1,3,6,8(2H,7H)-tetraone. The first and second redox flow batteries had NDI-1 and the second and third redox flow batteries had NDI-2. The details of the composition of the first, second, third and fourth redox flow batteries are given in table 4 (the negative aqueous-based electrolyte corresponds to the second aqueous-based electrolyte and the positive aqueous-based electrolyte corresponds to the first aqueous-based electrolyte).
For each one of the four redox flow batteries, 10 ml of the negative electrolyte, and 20 ml of the positive electrolyte was used, to balance the capacities, and the concentration of the redox active materials (BTMAP-Fc, NDI-1 and NDI-2) was 50 mM for all the four redox flow batteries. Each one of the redox flow batteries were cycled (100 cycles) with a current density of 10 mA cm−2, and each cycle took between 1.5 and 2 hours.
The capacity utilizations of the four redox flow batteries shown in FIG. 15 are calculated based on the following relationship: […]

[1] = negative electrolyte in 1M AmCl and 0.5M AmPh, 10 mA cm−2 (batteries 2 and 4)
[2] = negative electrolyte in 1M KCl and 0.5M KPh, 10 mA cm−2 (batteries 1 and 3)

Compound | Capacity change over 100 cycles [1] | Capacity change over 100 cycles [2]
CN(C)CCCN1C(=O)c2ccc3c4c(ccc(c24)C1=O)C(=O)N(CCCN(C)C)C3=O [NDI, 2,7-bis(3-(dimethylamino)propyl)benzo[Imn][3,8]phenanthroline-1,3,6,8(2H,7H)-tetraone] | slow capacity increase | significant capacity loss
CN(C)CCCN1C(=O)c2cc(N(C)C)c3c4c(cc(N(C)C)c(c24)C1=O)C(=O)N(CCCN(C)C)C3=O [NDI-2, 4,9-bis(dimethylamino)-2,7-bis(3-(dimethylamino)propyl)benzo[Imn][3,8]phenanthroline-1,3,6,8(2H,7H)-tetraone] | slow capacity increase | significant capacity loss
